Test [1] concerns the target AGO2 fused with C-terminal Flag- and HA-epitope tags (e-AGO2) (UniProt Q9UKV8). The test is described as follows: affinity purification with mass spectrometry.
The target of test [2] is AGO2 fused with C-terminal Flag- and HA-epitope tags (e-AGO2), Q9UKV8. In words: affinity purification with mass spectrometry. The settings on record: remark: other sources report otherwise.

Amino acid sequences for entries named in this document (tags omitted).
UniProt Q9UKV8, whole entry: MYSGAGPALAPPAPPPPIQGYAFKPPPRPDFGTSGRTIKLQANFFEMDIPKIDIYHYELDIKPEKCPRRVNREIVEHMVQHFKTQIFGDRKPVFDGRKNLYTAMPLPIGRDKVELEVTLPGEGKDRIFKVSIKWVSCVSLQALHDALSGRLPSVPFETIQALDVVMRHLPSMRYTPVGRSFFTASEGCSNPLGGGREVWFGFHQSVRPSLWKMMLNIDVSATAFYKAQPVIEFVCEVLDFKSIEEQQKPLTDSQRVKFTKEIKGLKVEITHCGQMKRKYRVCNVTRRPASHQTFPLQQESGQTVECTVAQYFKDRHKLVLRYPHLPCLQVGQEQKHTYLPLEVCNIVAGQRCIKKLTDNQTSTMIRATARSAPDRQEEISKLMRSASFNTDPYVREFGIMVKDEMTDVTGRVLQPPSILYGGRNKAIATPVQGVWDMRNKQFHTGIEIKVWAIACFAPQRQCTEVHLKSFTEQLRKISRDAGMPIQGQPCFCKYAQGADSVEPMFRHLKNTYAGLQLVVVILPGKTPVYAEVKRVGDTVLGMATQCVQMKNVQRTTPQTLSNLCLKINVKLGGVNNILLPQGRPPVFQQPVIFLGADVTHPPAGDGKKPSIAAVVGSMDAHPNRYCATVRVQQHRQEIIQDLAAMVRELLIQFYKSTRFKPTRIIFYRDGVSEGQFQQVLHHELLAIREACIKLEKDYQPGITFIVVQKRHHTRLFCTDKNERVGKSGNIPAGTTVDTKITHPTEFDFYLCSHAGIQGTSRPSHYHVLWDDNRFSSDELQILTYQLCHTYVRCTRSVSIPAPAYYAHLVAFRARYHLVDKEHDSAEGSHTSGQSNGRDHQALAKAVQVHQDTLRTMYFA

These are yes or no findings as the source states them, for the method shown. In cells and extracts the contact can be indirect. These calls come from enrichment with a bait or labelling near it, and not all partners need be listed. No binding means not detected with the bait. For some assays here: Sequences can lack the tags named with a protein.

B1: RBM14 (protein, UniProt Q96PK6 1-669)
chain: MKIFVGNVDGADTTPEELAALFAPYGTVMSCAVMKQFAFVHMRENAGALRAIEALHGHELRPGRALVVEMSRPRPLNTWKIFVGNVSAACTSQELRSLFERRGRVIECDVVKDYAFVHMEKEADAKAAIAQLNGKEVKGKRINVELSTKGQKKGPGLAVQSGDKTKKPGAGDTAFPGTGGFSATFDYQQAFGNSTGGFDGQARQPTPPFFGRDRSPLRRSPPRASYVAPLTAQPATYRAQPSVSLGAAYRAQPSASLGVGYRTQPMTAQAASYRAQPSVSLGAPYRGQLASPSSQSAAASSLGPYGGAQPSASALSSYGGQAAAASSLNSYGAQGSSLASYGNQPSSYGAQAASSYGVRAAASSYNTQGAASSLGSYGAQAASYGAQSAASSLAYGAQAASYNAQPSASYNAQSAPYAAQQAASYSSQPAAYVAQPATAAAYASQPAAYAAQATTPMAGSYGAQPVVQTQLNSYGAQASMGLSGSYGAQSAAAATGSYGAAAAYGAQPSATLAAPYRTQSSASLAASYAAQQHPQAAASYRGQPGNAYDGAGQPSAAYLSMSQGAVANANSTPPPYERTRLSPPRASYDDPYKKAVAMSKRYGSDRRLAELSDYRRLSESQLSFRRSPTKSSLDYRRLPDAHSDYARYSGSYNDYLRAAQMHSGYQRRM
As for B1, the binding result in test [1] is reported as “no binding”.

B2: FUS, P35637 1-526 (protein)
chain: MASNDYTQQATQSYGAYPTQPGQGYSQQSSQPYGQQSYSGYSQSTDTSGYGQSSYSSYGQSQNTGYGTQSTPQGYGSTGGYGSSQSSQSSYGQQSSYPGYGQQPAPSSTSGSYGSSSQSSSYGQPQSGSYSQQPSYGGQQQSYGQQQSYNPPQGYGQQNQYNSSSGGGGGGGGGGNYGQDQSSMSSGGGSGGGYGNQDQSGGGGSGGYGQQDRGGRGRGGSGGGGGGGGGGYNRSSGGYEPRGRGGGRGGRGGMGGSDRGGFNKFGGPRDQGSRHDSEQDNSDNNTIFVQGLGENVTIESVADYFKQIGIIKTNKKTGQPMINLYTDRETGKLKGEATVSFDDPPSAKAAIDWFDGKEFSGNPIKVSFATRRADFNRGGGNGRGGRGRGGPMGRGGYGGGGSGGGGRGGFPSGGGGGGGQQRAGDWKCPNPTCENMNFSWRNECNQCKAPKPDGPGGGPGGSHMGGNYGDDRRGGRGGYDRGGYRGRGGDRGGFRGGRGGGDRGGFGPGKMDSRGEHRQDRRERPY
As for B2, the binding entry in test [2] is recorded as “no binding”.
